T1: N-terminally 3xHA-tagged human RXFP3 (relaxin family peptide 3 receptor) (human) (UniProt Q9NSD7)
T1 sequence: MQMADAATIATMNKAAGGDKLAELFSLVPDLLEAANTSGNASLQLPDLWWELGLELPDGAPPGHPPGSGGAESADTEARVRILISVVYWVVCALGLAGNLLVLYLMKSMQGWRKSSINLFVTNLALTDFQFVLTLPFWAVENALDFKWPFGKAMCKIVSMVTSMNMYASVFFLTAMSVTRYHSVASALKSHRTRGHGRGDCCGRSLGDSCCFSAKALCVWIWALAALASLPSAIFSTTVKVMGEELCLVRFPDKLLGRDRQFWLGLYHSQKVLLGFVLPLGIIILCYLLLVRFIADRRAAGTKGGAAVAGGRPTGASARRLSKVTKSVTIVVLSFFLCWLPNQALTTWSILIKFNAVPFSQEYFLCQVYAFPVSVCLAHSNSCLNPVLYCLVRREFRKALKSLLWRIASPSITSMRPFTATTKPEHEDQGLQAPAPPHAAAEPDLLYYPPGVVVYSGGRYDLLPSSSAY

The chains behind the UniProt entries cited, without tags or fusion partners. Residues count along the entry.
UniProt P31153: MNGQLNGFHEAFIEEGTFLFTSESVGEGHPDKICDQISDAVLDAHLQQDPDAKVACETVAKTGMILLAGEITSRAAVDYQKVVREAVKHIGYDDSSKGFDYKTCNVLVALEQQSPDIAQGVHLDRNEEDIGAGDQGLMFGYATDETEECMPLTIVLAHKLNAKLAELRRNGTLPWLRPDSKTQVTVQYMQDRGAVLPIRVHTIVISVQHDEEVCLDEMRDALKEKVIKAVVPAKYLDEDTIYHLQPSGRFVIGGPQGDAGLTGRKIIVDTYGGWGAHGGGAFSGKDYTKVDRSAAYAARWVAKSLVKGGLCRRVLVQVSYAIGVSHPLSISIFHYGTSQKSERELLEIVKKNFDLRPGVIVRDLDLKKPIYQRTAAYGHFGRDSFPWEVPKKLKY
UniProt P67809: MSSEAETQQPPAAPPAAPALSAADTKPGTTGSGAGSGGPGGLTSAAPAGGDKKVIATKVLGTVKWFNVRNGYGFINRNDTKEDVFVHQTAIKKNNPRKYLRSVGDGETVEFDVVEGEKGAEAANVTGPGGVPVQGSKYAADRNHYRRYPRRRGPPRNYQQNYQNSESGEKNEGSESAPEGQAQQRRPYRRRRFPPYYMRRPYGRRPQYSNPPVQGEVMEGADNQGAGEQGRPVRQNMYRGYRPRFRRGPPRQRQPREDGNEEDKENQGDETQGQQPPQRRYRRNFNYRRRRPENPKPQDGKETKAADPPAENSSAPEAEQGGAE
UniProt P00441: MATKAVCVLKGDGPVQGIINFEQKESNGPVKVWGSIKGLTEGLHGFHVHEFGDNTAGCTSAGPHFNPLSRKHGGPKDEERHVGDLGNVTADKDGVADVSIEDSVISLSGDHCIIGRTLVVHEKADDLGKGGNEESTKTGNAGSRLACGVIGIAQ
UniProt P35637: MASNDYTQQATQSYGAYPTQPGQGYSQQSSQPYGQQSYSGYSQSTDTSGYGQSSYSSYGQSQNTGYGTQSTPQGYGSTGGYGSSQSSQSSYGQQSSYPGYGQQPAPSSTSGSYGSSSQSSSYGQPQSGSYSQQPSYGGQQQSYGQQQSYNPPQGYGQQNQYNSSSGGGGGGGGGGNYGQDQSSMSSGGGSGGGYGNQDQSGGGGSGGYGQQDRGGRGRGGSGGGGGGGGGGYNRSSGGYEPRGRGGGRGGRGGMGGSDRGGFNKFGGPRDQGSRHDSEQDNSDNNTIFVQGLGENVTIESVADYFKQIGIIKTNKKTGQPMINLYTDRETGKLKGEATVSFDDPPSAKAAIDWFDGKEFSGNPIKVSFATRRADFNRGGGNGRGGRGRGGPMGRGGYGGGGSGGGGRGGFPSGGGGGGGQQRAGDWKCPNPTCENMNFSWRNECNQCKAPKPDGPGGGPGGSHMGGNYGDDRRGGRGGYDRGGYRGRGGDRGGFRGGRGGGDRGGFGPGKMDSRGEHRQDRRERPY
UniProt P18065, residues 36-325: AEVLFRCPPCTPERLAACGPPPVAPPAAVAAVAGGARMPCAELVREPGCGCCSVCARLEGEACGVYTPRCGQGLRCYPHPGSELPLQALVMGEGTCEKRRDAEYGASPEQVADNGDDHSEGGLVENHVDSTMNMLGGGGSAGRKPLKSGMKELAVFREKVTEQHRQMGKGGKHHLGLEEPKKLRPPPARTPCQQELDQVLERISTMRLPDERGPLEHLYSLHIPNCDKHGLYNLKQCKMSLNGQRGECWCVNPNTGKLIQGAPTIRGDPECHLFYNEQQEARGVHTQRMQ
UniProt Q13283: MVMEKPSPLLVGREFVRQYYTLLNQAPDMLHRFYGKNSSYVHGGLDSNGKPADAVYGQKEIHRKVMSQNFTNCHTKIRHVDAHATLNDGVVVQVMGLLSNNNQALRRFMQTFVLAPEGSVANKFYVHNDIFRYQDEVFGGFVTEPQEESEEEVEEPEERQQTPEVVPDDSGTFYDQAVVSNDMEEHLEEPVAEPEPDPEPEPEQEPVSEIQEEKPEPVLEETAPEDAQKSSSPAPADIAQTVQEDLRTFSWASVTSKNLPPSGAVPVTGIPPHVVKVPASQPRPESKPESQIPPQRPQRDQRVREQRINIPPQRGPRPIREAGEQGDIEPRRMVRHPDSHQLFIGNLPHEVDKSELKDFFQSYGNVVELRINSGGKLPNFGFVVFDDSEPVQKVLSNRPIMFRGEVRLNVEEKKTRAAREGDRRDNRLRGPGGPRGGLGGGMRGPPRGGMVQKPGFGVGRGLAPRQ
UniProt P42771: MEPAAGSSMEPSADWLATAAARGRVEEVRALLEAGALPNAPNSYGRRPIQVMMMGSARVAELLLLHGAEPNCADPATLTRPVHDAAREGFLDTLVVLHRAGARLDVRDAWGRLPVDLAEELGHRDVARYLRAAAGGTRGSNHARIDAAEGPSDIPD
UniProt P38159: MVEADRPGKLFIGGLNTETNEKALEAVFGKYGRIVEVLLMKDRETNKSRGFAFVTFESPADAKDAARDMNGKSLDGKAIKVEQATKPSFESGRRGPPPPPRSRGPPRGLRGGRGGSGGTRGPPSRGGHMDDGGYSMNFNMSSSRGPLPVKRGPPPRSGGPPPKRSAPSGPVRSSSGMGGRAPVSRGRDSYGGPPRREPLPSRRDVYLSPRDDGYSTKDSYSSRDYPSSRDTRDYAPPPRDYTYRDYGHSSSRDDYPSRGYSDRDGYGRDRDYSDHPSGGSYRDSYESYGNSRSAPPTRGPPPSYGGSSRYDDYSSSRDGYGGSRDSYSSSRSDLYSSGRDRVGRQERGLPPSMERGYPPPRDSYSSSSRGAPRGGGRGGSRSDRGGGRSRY
UniProt Q15717: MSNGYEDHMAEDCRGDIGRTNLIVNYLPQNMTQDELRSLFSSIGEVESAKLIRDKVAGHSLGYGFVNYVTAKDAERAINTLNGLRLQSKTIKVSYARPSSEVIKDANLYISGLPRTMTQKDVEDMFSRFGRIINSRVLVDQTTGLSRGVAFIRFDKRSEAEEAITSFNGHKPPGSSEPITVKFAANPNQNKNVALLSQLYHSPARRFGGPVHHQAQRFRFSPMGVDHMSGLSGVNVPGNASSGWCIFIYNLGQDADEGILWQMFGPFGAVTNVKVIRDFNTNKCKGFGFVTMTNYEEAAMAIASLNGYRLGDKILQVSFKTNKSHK
UniProt P27816: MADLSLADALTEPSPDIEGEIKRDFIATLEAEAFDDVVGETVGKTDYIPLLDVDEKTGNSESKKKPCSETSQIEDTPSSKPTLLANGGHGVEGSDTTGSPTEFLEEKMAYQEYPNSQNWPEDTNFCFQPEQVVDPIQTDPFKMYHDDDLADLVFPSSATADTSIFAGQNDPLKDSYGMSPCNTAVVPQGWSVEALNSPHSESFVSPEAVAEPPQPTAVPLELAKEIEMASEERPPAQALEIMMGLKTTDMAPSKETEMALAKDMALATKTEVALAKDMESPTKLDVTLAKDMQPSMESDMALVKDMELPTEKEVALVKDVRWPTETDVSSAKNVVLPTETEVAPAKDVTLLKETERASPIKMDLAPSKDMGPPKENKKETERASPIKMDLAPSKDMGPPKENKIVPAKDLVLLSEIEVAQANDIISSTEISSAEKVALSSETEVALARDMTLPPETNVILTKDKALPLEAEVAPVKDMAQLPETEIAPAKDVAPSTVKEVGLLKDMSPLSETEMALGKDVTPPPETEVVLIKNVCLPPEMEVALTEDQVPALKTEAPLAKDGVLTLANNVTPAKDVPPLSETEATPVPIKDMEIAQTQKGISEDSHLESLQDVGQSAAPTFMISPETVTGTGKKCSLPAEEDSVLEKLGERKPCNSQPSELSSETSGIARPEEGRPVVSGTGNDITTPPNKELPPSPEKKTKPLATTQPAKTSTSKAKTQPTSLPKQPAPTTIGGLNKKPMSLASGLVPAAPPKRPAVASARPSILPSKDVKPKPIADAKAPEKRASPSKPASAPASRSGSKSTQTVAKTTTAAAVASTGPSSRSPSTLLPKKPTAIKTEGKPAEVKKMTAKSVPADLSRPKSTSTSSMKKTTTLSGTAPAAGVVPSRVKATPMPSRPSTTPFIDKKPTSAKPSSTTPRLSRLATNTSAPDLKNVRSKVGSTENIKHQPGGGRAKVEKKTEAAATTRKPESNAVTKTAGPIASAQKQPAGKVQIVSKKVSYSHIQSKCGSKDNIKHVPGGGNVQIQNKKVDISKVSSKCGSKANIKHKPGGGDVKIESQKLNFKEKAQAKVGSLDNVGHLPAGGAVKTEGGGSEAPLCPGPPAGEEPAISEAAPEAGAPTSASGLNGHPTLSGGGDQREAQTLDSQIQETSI
UniProt P60842: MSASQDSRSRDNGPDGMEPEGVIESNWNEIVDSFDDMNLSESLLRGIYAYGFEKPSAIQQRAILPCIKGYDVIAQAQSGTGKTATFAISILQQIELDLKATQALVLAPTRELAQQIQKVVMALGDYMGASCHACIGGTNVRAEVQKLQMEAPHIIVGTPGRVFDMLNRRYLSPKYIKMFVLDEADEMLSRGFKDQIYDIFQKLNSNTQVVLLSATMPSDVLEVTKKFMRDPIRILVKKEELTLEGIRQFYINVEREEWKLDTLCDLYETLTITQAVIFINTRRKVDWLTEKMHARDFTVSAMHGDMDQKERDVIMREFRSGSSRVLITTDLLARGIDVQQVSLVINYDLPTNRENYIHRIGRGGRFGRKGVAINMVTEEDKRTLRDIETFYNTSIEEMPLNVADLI
UniProt P12004: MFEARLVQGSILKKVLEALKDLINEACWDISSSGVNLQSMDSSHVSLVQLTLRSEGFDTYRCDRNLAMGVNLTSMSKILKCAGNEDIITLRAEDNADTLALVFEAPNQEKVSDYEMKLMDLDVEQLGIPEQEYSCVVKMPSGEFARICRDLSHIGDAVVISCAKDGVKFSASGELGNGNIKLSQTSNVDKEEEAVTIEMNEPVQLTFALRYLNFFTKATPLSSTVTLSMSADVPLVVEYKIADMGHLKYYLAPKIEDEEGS
UniProt P09874: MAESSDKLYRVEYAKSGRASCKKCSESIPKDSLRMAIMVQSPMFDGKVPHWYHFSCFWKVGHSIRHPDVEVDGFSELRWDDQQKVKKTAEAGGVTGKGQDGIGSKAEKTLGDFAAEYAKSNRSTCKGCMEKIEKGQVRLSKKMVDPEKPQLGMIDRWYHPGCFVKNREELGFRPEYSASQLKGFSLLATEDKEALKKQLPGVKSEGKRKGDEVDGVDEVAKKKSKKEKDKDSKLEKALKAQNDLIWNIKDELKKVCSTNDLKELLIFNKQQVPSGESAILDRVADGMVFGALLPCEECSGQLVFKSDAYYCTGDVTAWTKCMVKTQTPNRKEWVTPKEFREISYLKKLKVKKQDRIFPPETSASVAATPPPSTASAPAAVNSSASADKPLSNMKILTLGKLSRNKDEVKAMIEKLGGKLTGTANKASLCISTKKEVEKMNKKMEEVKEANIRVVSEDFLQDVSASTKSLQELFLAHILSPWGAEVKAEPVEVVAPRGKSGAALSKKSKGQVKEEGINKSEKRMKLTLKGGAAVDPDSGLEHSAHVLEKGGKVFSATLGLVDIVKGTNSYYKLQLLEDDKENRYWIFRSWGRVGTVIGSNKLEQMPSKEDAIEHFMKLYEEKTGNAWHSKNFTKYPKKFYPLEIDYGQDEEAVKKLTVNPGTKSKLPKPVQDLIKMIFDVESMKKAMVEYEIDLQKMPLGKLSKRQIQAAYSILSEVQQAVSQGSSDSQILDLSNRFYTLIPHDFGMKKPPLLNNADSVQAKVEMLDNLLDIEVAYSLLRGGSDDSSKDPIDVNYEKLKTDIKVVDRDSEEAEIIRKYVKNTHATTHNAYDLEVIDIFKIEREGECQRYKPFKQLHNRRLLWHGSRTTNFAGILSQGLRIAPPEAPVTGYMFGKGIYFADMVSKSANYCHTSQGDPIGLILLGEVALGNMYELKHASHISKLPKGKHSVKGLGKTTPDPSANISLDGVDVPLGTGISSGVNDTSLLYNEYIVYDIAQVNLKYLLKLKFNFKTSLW

B1: AIMP1 (protein, UniProt Q12904 1-312)
chain: MANNDAVLKRLEQKGAEADQIIEYLKQQVSLLKEKAILQATLREEKKLRVENAKLKKEIEELKQELIQAEIQNGVKQIPFPSGTPLHANSMVSENVIQSTAVTTVSSGTKEQIKGGTGDEKKAKEKIEKKGEKKEKKQQSIAGSADSKPIDVSRLDLRIGCIITARKHPDADSLYVEEVDVGEIAPRTVVSGLVNHVPLEQMQNRMVILLCNLKPAKMRGVLSQAMVMCASSPEKIEILAPPNGSVPGDRITFDAFPGEPDKELNPKKKIWEQIQPDLHTNDECVATYKGVPFEVKGKGVCRAQTMSNSGIK
B2: TRAP1 (protein, UniProt Q12931 60-704)
chain: STQTAEDKEEPLHSIISSTESVQGSTSKHEFQAETKKLLDIVARSLYSEKEVFIRELISNASDALEKLRHKLVSDGQALPEMEIHLQTNAEKGTITIQDTGIGMTQEELVSNLGTIARSGSKAFLDALQNQAEASSKIIGQFGVGFYSAFMVADRVEVYSRSAAPGSLGYQWLSDGSGVFEIAEASGVRTGTKIIIHLKSDCKEFSSEARVRDVVTKYSNFVSFPLYLNGRRMNTLQAIWMMDPKDVREWQHEEFYRYVAQAHDKPRYTLHYKTDAPLNIRSIFYVPDMKPSMFDVSRELGSSVALYSRKVLIQTKATDILPKWLRFIRGVVDSEDIPLNLSRELLQESALIRKLRDVLQQRLIKFFIDQSKKDAEKYAKFFEDYGLFMREGIVTATEQEVKEDIAKLLRYESSALPSGQLTSLSEYASRMRAGTRNIYYLCAPNRHLAEHSPYYEAMKKKDTEVLFCFEQFDELTLLHLREFDKKKLISVETDIVVDHYKEEKFEDRSPAAECLSEKETEELMAWMRNVLGSRVTNVKVTLRLDTHPAMVTVLEMGAARHFLRMQQLAKTQEERAQLLQPTLEINPRHALIKKLNQLRASEPGLAQLLVDQIYENAMIAAGLVDDPRAMVGRLNELLVKALERH
B3: PRDX6 (protein, UniProt P30041 1-224)
chain: MPGGLLLGDVAPNFEANTTVGRIRFHDFLGDSWGILFSHPRDFTPVCTTELGRAAKLAPEFAKRNVKLIALSIDSVEDHLAWSKDINAYNCEEPTEKLPFPIIDDRNRELAILLGMLDPAEKDEKGMPVTARVVFVFGPDKKLKLSILYPATTGRNFDEILRVVISLQLTAEKRVATPVDWKDGDSVMVLPTIPEEEAKKLFPKGVFTKELPSGKKYLRYTPQP
B4: PRDX1 (protein, UniProt Q06830 1-199)
chain: MSSGNAKIGHPAPNFKATAVMPDGQFKDISLSDYKGKYVVFFFYPLDFTFVCPTEIIAFSDRAEEFKKLNCQVIGASVDSHFCHLAWVNTPKKQGGLGPMNIPLVSDPKRTIAQDYGVLKADEGISFRGLFIIDDKGILRQITVNDLPVGRSVDETLRLVQAFQFTDKHGEVCPAGWKPGSDTIKPDVQKSKEYFSKQK
B5: NONO (protein, UniProt Q15233 1-471)
chain: MQSNKTFNLEKQNHTPRKHHQHHHQQQHHQQQQQQPPPPPIPANGQQASSQNEGLTIDLKNFRKPGEKTFTQRSRLFVGNLPPDITEEEMRKLFEKYGKAGEVFIHKDKGFGFIRLETRTLAEIAKVELDNMPLRGKQLRVRFACHSASLTVRNLPQYVSNELLEEAFSVFGQVERAVVIVDDRGRPSGKGIVEFSGKPAARKALDRCSEGSFLLTTFPRPVTVEPMDQLDDEEGLPEKLVIKNQQFHKEREQPPRFAQPGSFEYEYAMRWKALIEMEKQQQDQVDRNIKEAREKLEMEMEAARHEHQVMLMRQDLMRRQEELRRMEELHNQEVQKRKQLELRQEEERRRREEEMRRQQEEMMRRQQEGFKGTFPDAREQEIRMGQMAMGGAMGINNRGAMPPAPVPAGTPAPPGPATMMPDGTLGLTPPTTERFGQAATMEGIGAIGGTPPAFNRAAPGAEFAPNKRRRY

No constants are given. Whether binding was seen depends on the method and setting. Binding seen in cells or lysates may run through a third protein. Here binding means that the protein was enriched with, or labelled near, the bait; the list need not be complete. Sequences can lack the tags named with a protein.

This assay deals with T1, N-terminally 3xHA-tagged human RXFP3 (relaxin family peptide 3 receptor) (human). Nature of the assay: affinity purification with mass spectrometry; SILAC; cells transfected with 3xHA-RXFP3 against empty vector; RIPA 0.1% SDS extracts; anti-HA beads overnight, eluted with 150 mM glycine-HCl pH 2.5; cells unstressed, or 100 nM H2O2 for 90 minutes, or 1 uM camptothecin for 3 hours (n=3 each).
Take MAT2A (from UniProt P31153 1-395): the binding entry is “binds”.

For the molecule YBX1 (from UniProt P67809 1-324), the binding result was “binds”.

On to SOD1 (from UniProt P00441 1-154), for which the binding entry was “binds”.

As to FUS (from UniProt P35637 1-526), the binding result is reported as “binds”.

With IGFBP2 (from UniProt P18065 36-325), the binding result is recorded as “binds”.

For the molecule “G3BP Stress Granule Assembly Factor 1 (from UniProt Q13283 1-466)”, the binding entry is recorded as “binds”.

In the case of “cyclin-dependent kinase Inhibitor 2A (from UniProt P42771 1-156)”, the binding entry is reported as “binds”.

For the molecule RBMX (from UniProt P38159 1-391), the binding result is recorded as “binds”.

For the molecule ELAVL1 (from UniProt Q15717 1-326), the binding result was “binds”.

On to FAM98A (from UniProt Q8NCA5 1-518), for which the binding entry was “binds”.

Consider MAP4 (from UniProt P27816 1-1152), for which the binding entry was “binds”.

On to EIF4A1 (from UniProt P60842 1-406), for which the binding entry is recorded as “binds”.

Consider “proliferating cell nuclear antigen (from UniProt P12004 1-261)”, for which the binding result is listed as “binds”.

PARP1 (from UniProt P09874 1-1014): the binding result was “binds”.

Take B1: the binding entry was “binds”.

Turning to B2, the binding entry is on record as “binds”.

Consider B3, for which the binding result is reported as “binds”.

In the case of B4, the binding result is recorded as “binds”.

On to B5, for which the binding result is listed as “binds”.
